Measured values as given in the supplement of paper PMC10849652.
The other results are listed elsewhere or left out.

Amino acid sequences for entries named in this document (tags omitted). A change or cut given only in a name is not applied to a line headed by its entry.
UniProt Q8NBN3: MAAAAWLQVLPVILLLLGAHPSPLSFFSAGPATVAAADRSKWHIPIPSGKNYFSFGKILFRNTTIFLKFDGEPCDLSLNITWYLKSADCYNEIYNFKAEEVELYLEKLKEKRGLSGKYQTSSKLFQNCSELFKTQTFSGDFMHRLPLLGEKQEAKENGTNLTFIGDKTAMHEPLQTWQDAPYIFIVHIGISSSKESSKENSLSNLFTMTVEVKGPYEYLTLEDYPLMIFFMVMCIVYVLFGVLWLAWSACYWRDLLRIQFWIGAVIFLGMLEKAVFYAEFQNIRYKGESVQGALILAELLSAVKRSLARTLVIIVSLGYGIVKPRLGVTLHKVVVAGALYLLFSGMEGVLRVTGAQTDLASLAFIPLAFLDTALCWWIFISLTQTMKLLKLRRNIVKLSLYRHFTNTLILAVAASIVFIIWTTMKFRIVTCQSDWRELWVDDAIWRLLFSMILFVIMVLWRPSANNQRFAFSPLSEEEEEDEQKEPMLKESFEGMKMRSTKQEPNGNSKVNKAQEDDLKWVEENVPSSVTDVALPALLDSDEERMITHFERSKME
UniProt Q9NV96: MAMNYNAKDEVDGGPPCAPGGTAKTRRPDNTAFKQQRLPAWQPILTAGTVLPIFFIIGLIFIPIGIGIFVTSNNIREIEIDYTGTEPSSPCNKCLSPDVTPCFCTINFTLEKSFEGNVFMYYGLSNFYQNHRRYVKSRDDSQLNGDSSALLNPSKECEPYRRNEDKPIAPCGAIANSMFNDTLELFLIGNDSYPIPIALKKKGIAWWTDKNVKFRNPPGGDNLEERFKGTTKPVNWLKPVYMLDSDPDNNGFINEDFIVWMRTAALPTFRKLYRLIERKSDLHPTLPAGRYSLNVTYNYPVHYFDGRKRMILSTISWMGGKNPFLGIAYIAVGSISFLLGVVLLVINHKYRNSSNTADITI
UniProt O95379: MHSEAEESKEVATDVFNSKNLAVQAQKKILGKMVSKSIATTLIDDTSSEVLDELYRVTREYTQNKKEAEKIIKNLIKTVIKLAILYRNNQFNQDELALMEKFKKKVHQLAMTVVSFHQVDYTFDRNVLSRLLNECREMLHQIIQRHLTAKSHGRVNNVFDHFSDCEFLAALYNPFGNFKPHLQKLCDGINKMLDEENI
UniProt Q9NYL9: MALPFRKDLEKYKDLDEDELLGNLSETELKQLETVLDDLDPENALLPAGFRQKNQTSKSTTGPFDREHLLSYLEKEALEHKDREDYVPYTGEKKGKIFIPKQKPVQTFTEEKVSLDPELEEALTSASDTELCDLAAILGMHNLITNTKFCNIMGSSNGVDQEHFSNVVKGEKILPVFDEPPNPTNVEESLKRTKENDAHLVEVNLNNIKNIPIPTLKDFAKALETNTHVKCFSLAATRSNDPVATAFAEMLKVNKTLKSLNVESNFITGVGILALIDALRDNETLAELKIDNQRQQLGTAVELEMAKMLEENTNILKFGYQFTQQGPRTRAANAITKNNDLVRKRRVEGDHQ
UniProt P11387: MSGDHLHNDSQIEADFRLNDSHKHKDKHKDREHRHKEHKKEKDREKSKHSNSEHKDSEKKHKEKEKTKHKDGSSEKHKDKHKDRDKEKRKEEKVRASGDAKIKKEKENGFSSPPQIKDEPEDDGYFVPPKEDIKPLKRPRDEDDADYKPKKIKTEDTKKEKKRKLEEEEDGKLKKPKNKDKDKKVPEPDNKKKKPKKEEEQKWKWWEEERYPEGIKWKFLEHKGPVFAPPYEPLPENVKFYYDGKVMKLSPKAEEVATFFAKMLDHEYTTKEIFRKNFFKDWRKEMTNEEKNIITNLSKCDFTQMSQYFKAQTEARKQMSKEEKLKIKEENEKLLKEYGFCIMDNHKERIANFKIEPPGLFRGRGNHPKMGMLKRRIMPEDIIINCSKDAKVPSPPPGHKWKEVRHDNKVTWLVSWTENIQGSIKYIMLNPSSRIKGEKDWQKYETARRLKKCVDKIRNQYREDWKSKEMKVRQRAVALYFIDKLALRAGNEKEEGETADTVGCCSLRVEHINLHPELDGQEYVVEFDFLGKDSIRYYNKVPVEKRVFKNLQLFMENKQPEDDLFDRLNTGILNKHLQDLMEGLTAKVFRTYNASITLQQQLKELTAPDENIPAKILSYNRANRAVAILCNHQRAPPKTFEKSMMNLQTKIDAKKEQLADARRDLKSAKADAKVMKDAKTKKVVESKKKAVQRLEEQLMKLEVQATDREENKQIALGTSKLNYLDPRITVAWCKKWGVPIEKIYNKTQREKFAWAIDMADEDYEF
UniProt Q9H3N1: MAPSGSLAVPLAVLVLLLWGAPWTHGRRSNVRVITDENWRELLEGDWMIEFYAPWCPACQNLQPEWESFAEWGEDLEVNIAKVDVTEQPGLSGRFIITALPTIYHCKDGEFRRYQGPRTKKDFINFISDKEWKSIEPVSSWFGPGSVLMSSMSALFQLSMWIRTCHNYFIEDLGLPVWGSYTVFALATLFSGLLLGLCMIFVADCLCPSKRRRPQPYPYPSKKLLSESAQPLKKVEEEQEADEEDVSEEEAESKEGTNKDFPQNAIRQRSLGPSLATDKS
UniProt Q86XT9, whole entry, looked up: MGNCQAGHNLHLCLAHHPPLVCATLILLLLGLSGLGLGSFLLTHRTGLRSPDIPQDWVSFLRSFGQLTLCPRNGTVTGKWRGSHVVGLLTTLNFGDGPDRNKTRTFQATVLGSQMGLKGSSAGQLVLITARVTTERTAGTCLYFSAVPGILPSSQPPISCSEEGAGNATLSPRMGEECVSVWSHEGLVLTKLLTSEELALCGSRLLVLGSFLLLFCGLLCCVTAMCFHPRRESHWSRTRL
UniProt Q8NFQ8: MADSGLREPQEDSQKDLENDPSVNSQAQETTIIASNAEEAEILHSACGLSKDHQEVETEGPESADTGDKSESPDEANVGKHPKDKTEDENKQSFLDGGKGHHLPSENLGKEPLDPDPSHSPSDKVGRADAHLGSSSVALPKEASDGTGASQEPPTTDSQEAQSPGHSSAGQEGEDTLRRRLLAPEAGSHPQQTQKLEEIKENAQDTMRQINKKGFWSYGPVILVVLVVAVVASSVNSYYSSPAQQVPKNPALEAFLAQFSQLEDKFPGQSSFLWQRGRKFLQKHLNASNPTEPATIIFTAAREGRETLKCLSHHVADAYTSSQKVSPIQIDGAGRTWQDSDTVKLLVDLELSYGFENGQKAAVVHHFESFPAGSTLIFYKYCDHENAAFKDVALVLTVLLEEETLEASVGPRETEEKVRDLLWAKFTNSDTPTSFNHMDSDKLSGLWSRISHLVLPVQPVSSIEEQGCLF

Tests used:
Assay in all cases: log2 fold change, soluble protein after heating vs DMSO (PISA); higher = thermal stabilisation; K562 lysate, 10 uM; active = over 0.2 and 3.5 SD of the protein, either way, in both replicates (recomputed)
ibrutinib = compound: C=CC(=O)N1CCC[C@@H](n2nc(-c3ccc(Oc4ccccc4)cc3)c3c(N)ncnc32)C1 [ibrutinib]
Method in brief: (§1)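 K562 pellets were dounce-homogenised in PBS pH 7.4 with 1 mM MgCl2, and the crude extract at 1 mg/mL protein was treated with 10 μM compound for 30 min. Aliquots were heated for 3 min across 48°C-58°C, pooled, and brought to 0.5% NP-40 at 4°C; soluble protein was the supernatant after 21,000xg for 90 min. Soluble protein was quantified by TMTpro 16plex LC-MS/MS with channel sums equalised, and reported as log2 fold change in thermal stability against DMSO controls, with values from duplicates.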

[1] = compound: CC(=O)c1cnc2ccc(-c3cc(Cl)c(O)c(Cl)c3)nc2c1N[C@H]1CC[C@H](CN(C)C)CC1
Method in brief: as §1

ralimetinib = compound: CC(C)(C)Cn1c(N)nc2ccc(-c3[nH]c(C(C)(C)C)nc3-c3ccc(F)cc3)nc21 [ralimetinib]
Method in brief: as §1

[2] = compound: CC(C)(O)CC(=O)NCCn1ccc2ncnc(Nc3ccc(Oc4cccc(C(F)(F)F)c4)c(Cl)c3)c21
Method in brief: as §1

[3] = compound: CC(C)C1=C2N=C(C=C(N2N=C1)NCC3=CC=CC=C3)NCCCCCCN
Method in brief: as §1

[4] = compound: CC1=C(C(CC(=O)N1)C2=CC=C(C=C2)C(F)(F)F)C(=O)NC3=C(C=C4C(=C3)C=NN4)F
Method in brief: as §1

[5] = compound: CC1=C(C2=C(C=C1)C(=O)C3=CC=CC=C3N2CCCN)C
Method in brief: as §1

[6] = compound: CC1=C(C=C(C=C1)NC(=O)C2=CC(=CC=C2)C(C)(C)C#N)NC3=CC4=C(C=C3)N=CN(C4=O)C
Method in brief: as §1

[7] = compound: CC1=C(C=C(C=C1)NC(=O)C2=CC(=CC=C2)N(C)C)NC(=O)C3=CC=C(C=C3)O
Method in brief: as §1

[8] = compound: CC1=CC=C(C=C1)SC2=C3C=C(SC3=CN=C2)C(=O)N
Method in brief: as §1

vemurafenib = compound: CCCS(=O)(=O)Nc1ccc(F)c(C(=O)c2c[nH]c3ncc(-c4ccc(Cl)cc4)cc23)c1F [vemurafenib]
Method in brief: as §1

[9] = compound: CCCS(=O)(=O)Nc1ccc(F)c(C(=O)c2c[nH]c3ncc(Cl)cc23)c1F
Method in brief: as §1

barasertib = compound: CCN(CCCOc1ccc2c(Nc3cc(CC(=O)Nc4cccc(F)c4)[nH]n3)ncnc2c1)CCOP(=O)(O)O [barasertib]
Method in brief: as §1

[10] = compound: CC[C@@H]1C(=O)N(C)c2cnc(Nc3ccc(C(=O)NC4CCN(C)CC4)cc3OC)nc2N1C1CCCC1
Method in brief: as §1

volasertib = compound: CC[C@@H]1C(=O)N(C)c2cnc(Nc3ccc(C(=O)N[C@H]4CC[C@H](N5CCN(CC6CC6)CC5)CC4)cc3OC)nc2N1C(C)C [volasertib]
Method in brief: as §1

[11] = compound: CCn1c(C(=O)N(C2CC2)C2CC2)cc2c3c(ncn3C)c(Nc3cc(C)n(C)n3)nc21
Method in brief: as §1

[12] = compound: CCn1cc(-c2ccnc3[nH]c(-c4cccc(CN(C)C)c4)cc23)c(-c2ccc(NC(=O)N(C)C)cc2)n1
Method in brief: as §1

[13] = compound: CN1CCC(CNc2ccc3ncc(-c4cccc(OC(F)(F)F)c4)n3n2)CC1
Method in brief: as §1

saracatinib = compound: CN1CCN(CCOc2cc(OC3CCOCC3)c3c(Nc4c(Cl)ccc5c4OCO5)ncnc3c2)CC1 [saracatinib]
Method in brief: as §1

sotrastaurin = compound: CN1CCN(c2nc(C3=C(c4c[nH]c5ccccc45)C(=O)NC3=O)c3ccccc3n2)CC1 [sotrastaurin]
Method in brief: as §1

Measured: log2 fold change

TMEM87A (UniProt Q8NBN3)
inactive: ibrutinib -0.002 | [1] 0.019 | ralimetinib -0.031 | [2] -0.035 | [3] -0.075 | [4] -0.017 | [5] -0.02 | [6] 0.016 | [7] 0.004 | [8] -0.02 | vemurafenib 0.032 | [9] -0.007 | barasertib -0.025 | [10] 0.008 | volasertib -0.006 | [11] -0.026 | [12] -0.114 | saracatinib -0.001 | sotrastaurin 0.017
active: [13] 0.332

TMEM30A (UniProt Q9NV96)
inactive: ibrutinib 0.049 | [1] -0.01 | ralimetinib -0.007 | [2] -0.014 | [3] -0.043 | [4] 0.011 | [5] -0.105 | [6] -0.002 | [7] 0.023 | [8] -0.024 | vemurafenib 0.002 | [9] -0.016 | barasertib -0.004 | [10] 0.067 | volasertib 0.027 | [11] 0.004 | [12] 0.08 | [13] 0.005 | saracatinib -0.024 | sotrastaurin 0.01

TNFAIP8 isoform 4 (UniProt O95379)
inactive: ibrutinib -0.027 | [1] -0.01 | ralimetinib -0.114 | [2] 0.003 | [3] -0.023 | [4] -0.034 | [5] 0.017 | [6] -0.054 | [7] 0.035 | [8] -0.015 | vemurafenib -0.013 | [9] -0.015 | barasertib 0.015 | [10] 0 | volasertib 0.015 | [11] 0.046 | [12] 0.007 | [13] -0.03 | saracatinib 0.038 | sotrastaurin 0.019

TMOD3 (UniProt Q9NYL9)
inactive: ibrutinib -0.027 | [1] -0.004 | ralimetinib -0.014 | [2] -0.045 | [3] -0.011 | [4] -0.017 | [5] 0.005 | [6] 0.026 | [7] 0.011 | [8] -0.017 | vemurafenib 0.004 | [9] 0.019 | barasertib -0.049 | [10] 0.043 | volasertib 0.01 | [11] -0.042 | [12] 0.004 | [13] 0.017 | saracatinib 0.012 | sotrastaurin 0.016

TOP1 (UniProt P11387)
inactive: ibrutinib -0.002 | [1] 0.004 | ralimetinib 0.04 | [2] 0.019 | [3] -0.023 | [4] -0.003 | [5] 0.028 | [6] -0.01 | [7] 0.051 | [8] 0.032 | vemurafenib -0.002 | [9] 0.011 | barasertib 0.024 | [10] -0.021 | volasertib -0.008 | [11] 0.019 | [12] -0.003 | [13] -0.005 | saracatinib 0.001 | sotrastaurin 0.028

TMX1 (UniProt Q9H3N1)
inactive: ibrutinib -0.019 | [1] 0.024 | ralimetinib -0.009 | [2] 0.024 | [3] -0.009 | [4] 0.001 | [5] 0.006 | [6] -0.014 | [7] -0.048 | [8] 0.047 | vemurafenib -0.009 | [9] -0.011 | barasertib -0.008 | [10] -0.013 | volasertib 0.036 | [11] 0.023 | [12] -0.051 | [13] 0.023 | saracatinib -0.029 | sotrastaurin 0.011

TMEM219 (UniProt Q86XT9)
inactive: ibrutinib 0.044 | [1] 0.041 | ralimetinib -0.059 | [2] 0.014 | [3] -0.06 | [4] 0.025 | [5] 0.01 | [6] 0.045 | [7] -0.063 | [8] -0.034 | vemurafenib -0.122 | [9] 0.003 | barasertib -0.017 | [10] -0.228 | volasertib -0.068 | [11] -0.059 | [12] 0.06 | [13] 0.061 | saracatinib -0.019 | sotrastaurin -0.014

TOR1AIP2 (UniProt Q8NFQ8)
inactive: ibrutinib 0.02 | [1] 0.046 | ralimetinib 0.002 | [2] 0.005 | [3] -0.017 | [4] -0.021 | [5] -0.007 | [6] 0.003 | [7] -0.013 | [8] 0.018 | vemurafenib -0.019 | [9] -0.01 | barasertib -0.017 | [10] -0.004 | volasertib -0.006 | [11] -0.013 | [12] 0.004 | [13] 0.012 | saracatinib 0.033 | sotrastaurin -0.002
